The effect of the compound repeats well; differences between the knockouts mostly do not.
Test system: MDA-MB-231
Test: relative cell number vs DMSO control (72 h) (% of DMSO); higher = less growth inhibition (more cells)
Method: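 QMAP-Seq: a pool of 5 breast cancer cell lines (ZR-75-1, SKBR3, HCC-38, MDA-MB-231, BT-20), each carrying 12 doxycycline-inducible Cas9 sgRNA perturbations (11 knockouts plus non-targeting sgNT), was treated with compounds for 72 h at four 10-fold doses (10 nM-10 uM or 1 nM-1 uM range). Barcodes were amplified and sequenced, and cell number was interpolated from 293T spike-in standard curves. The result is expressed as % of the median of DMSO wells. Two biological replicates.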

CC[C@H](C)C(=O)O[C@H]1C[C@@H](C)C=C2C=C[C@H](C)[C@H](CC[C@@H]3C[C@@H](O)CC(=O)O3)[C@H]21 [Lovastatin]
Conditions | relative cell number
sgRNA knockout: sgATF3, 10 nM | 123
sgRNA knockout: sgATF3, 100 nM | 95.1
sgRNA knockout: sgATF3, 1000 nM | 75.86
sgRNA knockout: sgATF3, 10000 nM | 13.9
sgRNA knockout: sgATF4, 10 nM | 122
sgRNA knockout: sgATF4, 100 nM | 103
sgRNA knockout: sgATF4, 1000 nM | 79.4
sgRNA knockout: sgATF4, 10000 nM | 14
sgRNA knockout: sgATF6, 10 nM | 132
sgRNA knockout: sgATF6, 100 nM | 93.3
sgRNA knockout: sgATF6, 1000 nM | 55.6
sgRNA knockout: sgATF6, 10000 nM | 12.5
sgRNA knockout: sgATG7, 10 nM | 113
sgRNA knockout: sgATG7, 100 nM | 68.5
sgRNA knockout: sgATG7, 1000 nM | 96
sgRNA knockout: sgATG7, 10000 nM | 15.5
sgRNA knockout: sgERN1, 10 nM | 103
sgRNA knockout: sgERN1, 100 nM | 69.8
sgRNA knockout: sgERN1, 1000 nM | 102
sgRNA knockout: sgERN1, 10000 nM | 15.1
sgRNA knockout: sgHSF1, 10 nM | 87.8
sgRNA knockout: sgHSF1, 100 nM | 99.9
sgRNA knockout: sgHSF1, 1000 nM | 81.8
sgRNA knockout: sgHSF1, 10000 nM | 15.9
sgRNA knockout: sgHSF2, 10 nM | 103
sgRNA knockout: sgHSF2, 100 nM | 83.2
sgRNA knockout: sgHSF2, 1000 nM | 102
sgRNA knockout: sgHSF2, 10000 nM | 15.4
sgRNA knockout: sgKEAP1, 10 nM | 108
sgRNA knockout: sgKEAP1, 100 nM | 83.3
sgRNA knockout: sgKEAP1, 1000 nM | 82.7
sgRNA knockout: sgKEAP1, 10000 nM | 20.9
sgRNA knockout: sgNFE2L2, 10 nM | 115
sgRNA knockout: sgNFE2L2, 100 nM | 92.1
sgRNA knockout: sgNFE2L2, 1000 nM | 72.4
sgRNA knockout: sgNFE2L2, 10000 nM | 16.2
sgRNA knockout: sgSLC35F2, 10 nM | 85.8
sgRNA knockout: sgSLC35F2, 100 nM | 82.32
sgRNA knockout: sgSLC35F2, 1000 nM | 78.1
sgRNA knockout: sgSLC35F2, 10000 nM | 13.8
sgRNA knockout: sgXBP1, 10 nM | 122
sgRNA knockout: sgXBP1, 100 nM | 86.9
sgRNA knockout: sgXBP1, 1000 nM | 66.9
sgRNA knockout: sgXBP1, 10000 nM | 12.7

CC(=O)Nc1nc(C)c(S(=O)(=O)Nc2ccc(C(O)(C(F)(F)F)C(F)(F)F)cc2)s1 [SR1001]
Conditions | relative cell number
sgRNA knockout: sgATF3, 10 nM | 113
sgRNA knockout: sgATF3, 100 nM | 98.1
sgRNA knockout: sgATF3, 1000 nM | 97
sgRNA knockout: sgATF3, 10000 nM | 106
sgRNA knockout: sgATF4, 10 nM | 152
sgRNA knockout: sgATF4, 100 nM | 96.2
sgRNA knockout: sgATF4, 1000 nM | 128
sgRNA knockout: sgATF4, 10000 nM | 127
sgRNA knockout: sgATF6, 10 nM | 92.9
sgRNA knockout: sgATF6, 100 nM | 89.2
sgRNA knockout: sgATF6, 1000 nM | 116
sgRNA knockout: sgATF6, 10000 nM | 107
sgRNA knockout: sgATG7, 10 nM | 80.9
sgRNA knockout: sgATG7, 100 nM | 95.6
sgRNA knockout: sgATG7, 1000 nM | 134
sgRNA knockout: sgATG7, 10000 nM | 93.3
sgRNA knockout: sgERN1, 10 nM | 95
sgRNA knockout: sgERN1, 100 nM | 98.17
sgRNA knockout: sgERN1, 1000 nM | 109
sgRNA knockout: sgERN1, 10000 nM | 115
sgRNA knockout: sgHSF1, 10 nM | 82.6
sgRNA knockout: sgHSF1, 100 nM | 72.3
sgRNA knockout: sgHSF1, 1000 nM | 84.17
sgRNA knockout: sgHSF1, 10000 nM | 97.62
sgRNA knockout: sgHSF2, 10 nM | 116
sgRNA knockout: sgHSF2, 100 nM | 98.6
sgRNA knockout: sgHSF2, 1000 nM | 114
sgRNA knockout: sgHSF2, 10000 nM | 110
sgRNA knockout: sgKEAP1, 10 nM | 111
sgRNA knockout: sgKEAP1, 100 nM | 93.7
sgRNA knockout: sgKEAP1, 1000 nM | 115
sgRNA knockout: sgKEAP1, 10000 nM | 90.67
sgRNA knockout: sgNFE2L2, 10 nM | 97.9
sgRNA knockout: sgNFE2L2, 100 nM | 89
sgRNA knockout: sgNFE2L2, 1000 nM | 136
sgRNA knockout: sgNFE2L2, 10000 nM | 128
sgRNA knockout: sgSLC35F2, 10 nM | 88.9
sgRNA knockout: sgSLC35F2, 100 nM | 88.8
sgRNA knockout: sgSLC35F2, 1000 nM | 105
sgRNA knockout: sgSLC35F2, 10000 nM | 88.3
sgRNA knockout: sgXBP1, 10 nM | 97.5
sgRNA knockout: sgXBP1, 100 nM | 93.7
sgRNA knockout: sgXBP1, 1000 nM | 116
sgRNA knockout: sgXBP1, 10000 nM | 118

COc1cc([C@@H]2c3cc4c(cc3[C@@H](O[C@@H]3O[C@@H]5CO[C@@H](C)O[C@H]5[C@H](O)[C@H]3O)[C@H]3COC(=O)[C@H]23)OCO4)cc(OC)c1O [Etoposide]
Conditions | relative cell number
sgRNA knockout: sgATF3, 10 nM | 71.5
sgRNA knockout: sgATF3, 100 nM | 73.9
sgRNA knockout: sgATF3, 1000 nM | 32.6
sgRNA knockout: sgATF3, 10000 nM | 12.1
sgRNA knockout: sgATF4, 10 nM | 60.84
sgRNA knockout: sgATF4, 100 nM | 85.1
sgRNA knockout: sgATF4, 1000 nM | 32.5
sgRNA knockout: sgATF4, 10000 nM | 19.7
sgRNA knockout: sgATF6, 10 nM | 84.5
sgRNA knockout: sgATF6, 100 nM | 77.7
sgRNA knockout: sgATF6, 1000 nM | 20
sgRNA knockout: sgATF6, 10000 nM | 9.93
sgRNA knockout: sgATG7, 10 nM | 79.8
sgRNA knockout: sgATG7, 100 nM | 69.5
sgRNA knockout: sgATG7, 1000 nM | 30.9
sgRNA knockout: sgATG7, 10000 nM | 10.5
sgRNA knockout: sgERN1, 10 nM | 73
sgRNA knockout: sgERN1, 100 nM | 70.51
sgRNA knockout: sgERN1, 1000 nM | 18.9
sgRNA knockout: sgERN1, 10000 nM | 8.61
sgRNA knockout: sgHSF1, 10 nM | 58.8
sgRNA knockout: sgHSF1, 100 nM | 60.8
sgRNA knockout: sgHSF1, 1000 nM | 21
sgRNA knockout: sgHSF1, 10000 nM | 12.5
sgRNA knockout: sgHSF2, 10 nM | 78.4
sgRNA knockout: sgHSF2, 100 nM | 61
sgRNA knockout: sgHSF2, 1000 nM | 31
sgRNA knockout: sgHSF2, 10000 nM | 9.69
sgRNA knockout: sgKEAP1, 10 nM | 64
sgRNA knockout: sgKEAP1, 100 nM | 74.1
sgRNA knockout: sgKEAP1, 1000 nM | 21.4
sgRNA knockout: sgKEAP1, 10000 nM | 10.5
sgRNA knockout: sgNFE2L2, 10 nM | 43.7
sgRNA knockout: sgNFE2L2, 100 nM | 54.6
sgRNA knockout: sgNFE2L2, 1000 nM | 14.1
sgRNA knockout: sgNFE2L2, 10000 nM | 7.83
sgRNA knockout: sgSLC35F2, 10 nM | 69.2
sgRNA knockout: sgSLC35F2, 100 nM | 78.6
sgRNA knockout: sgSLC35F2, 1000 nM | 24.5
sgRNA knockout: sgSLC35F2, 10000 nM | 12.1
sgRNA knockout: sgXBP1, 10 nM | 46.6
sgRNA knockout: sgXBP1, 100 nM | 72.5
sgRNA knockout: sgXBP1, 1000 nM | 20.5
sgRNA knockout: sgXBP1, 10000 nM | 11.3

Reference: the supplement of paper PMC7661543
